# Laboratory results: the supplement of paper PMC8728848
# This is one part of the list.
# B1: SP15308B-bot-339-22-339 (Bacteroides ovatus) (protein)
# chain: NEWEDEQYEQYVSFKAPIASGSDGVTTIYVRYKDNGKVTYQLPIIVSGSTVNSQDRDIHIAVDKDTLKTLNIERFSLYRPELWYTEMEEDKYEFPETVHIPAGSCVELLNIDFNLQDIDMLEKWVLPLTIVDDGSYAYQSHPRKNYAKALLKVVPFNNYSGSYTASSMKVYTYINGKPDTNARTTDKRTGYVVDNNSIFFYAGLINEDMDKDMRKKYKINVHFKEDGTLDMKQDDPSNEMEFELIGTPTYSSTSVMDATRPYLERRYVQIMFEYDFQDFTYGGSGTEVIPIKYRVAGSMTLLRNINTQIPDEDQQIEW
# Key:
# Assay in all cases: glycan array binding signal (z-score within array); higher = stronger binding
# Details in all cases: glycan notation: IUPAC condensed, linker removed
# [1] = target: GlcNAc(a1-3)Gal(b1-4)GlcNAc
# How it was run: (§1)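 Negative Z-scores can be read as non-binding. The Z-score is calculated within each array and then averaged across arrays of one protein sequence at different concentrations or buffers and across linkers. Arrays, 3228 in all, were curated from the Consortium for Functional Glycomics database and kept only where the protein sequence was available.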
# [2] = target: GlcNAc(a1-4)Gal(b1-3)GlcNAc
# How it was run: as §1
# [3] = target: GlcNAc(a1-4)Gal(b1-4)GalNAc
# How it was run: as §1
# [4] = target: GlcNAc(a1-4)Gal(b1-4)GlcNAc
# How it was run: as §1
# [5] = target: GlcNAc(a1-4)Gal(b1-4)GlcNAc(b1-3)Gal(b1-4)Glc
# How it was run: as §1
# [6] = target: GlcNAc(a1-4)Gal(b1-4)GlcNAc(b1-3)Gal(b1-4)GlcNAc
# How it was run: as §1
# [7] = target: GlcNAc(a1-4)Gal(b1-4)GlcNAc(b1-3)Gal(b1-4)GlcNAc(b1-3)Gal(b1-4)GlcNAc
# How it was run: as §1
# [8] = target: GlcNAc(a1-4)Gal(b1-4)GlcNAc(b1-3)Gal(b1-4)[Fuc(a1-3)]GlcNAc(b1-3)Gal(b1-4)[Fuc(a1-3)]GlcNAc
# How it was run: as §1
# [9] = target: GlcNAc(a1-6)Gal(b1-4)GlcNAc
# How it was run: as §1
# [10] = target: GlcNAc(b1-2)Gal(b1-3)GalNAc
# How it was run: as §1
# [11] = target: GlcNAc(b1-2)Man(a1-3)[GlcNAc(b1-2)Man(a1-6)]Man(b1-4)GlcNAc(b1-4)GlcNAc
# How it was run: as §1
# [12] = target: GlcNAc(b1-2)Man(a1-3)[GlcNAc(b1-2)Man(a1-6)]Man(b1-4)GlcNAc(b1-4)[Fuc(a1-6)]GlcNAc
# How it was run: as §1
# [13] = target: GlcNAc(b1-2)Man(a1-3)[GlcNAc(b1-4)][GlcNAc(b1-2)Man(a1-6)]Man(b1-4)GlcNAc(b1-4)GlcNAc
# How it was run: as §1
# [14] = target: GlcNAc(b1-2)Man(a1-3)[GlcNAc(b1-4)][GlcNAc(b1-2)Man(a1-6)]Man(b1-4)GlcNAc(b1-4)[Fuc(a1-6)]GlcNAc
# How it was run: as §1
# [15] = target: GlcNAc(b1-2)[GlcNAc(b1-4)]Man(a1-3)[GlcNAc(b1-2)Man(a1-6)]Man(b1-4)GlcNAc(b1-4)GlcNAc
# How it was run: as §1
# [16] = target: GlcNAc(b1-2)[GlcNAc(b1-4)]Man(a1-3)[GlcNAc(b1-4)][GlcNAc(b1-2)Man(a1-6)]Man(b1-4)GlcNAc(b1-4)GlcNAc
# How it was run: as §1
# [17] = target: GlcNAc(b1-2)[GlcNAc(b1-4)]Man(a1-3)[GlcNAc(b1-4)][GlcNAc(b1-2)[GlcNAc(b1-6)]Man(a1-6)]Man(b1-4)GlcNAc(b1-4)GlcNAc
# How it was run: as §1
# [18] = target: GlcNAc(b1-2)[GlcNAc(b1-4)]Man(a1-3)[GlcNAc(b1-4)][GlcNAc(b1-2)[GlcNAc(b1-6)]Man(a1-6)]Man(b1-4)GlcNAc(b1-4)[Fuc(a1-6)]GlcNAc
# How it was run: as §1
# [19] = target: GlcNAc(b1-2)[GlcNAc(b1-6)]Man(a1-6)[GlcNAc(b1-2)Man(a1-3)]Man(b1-4)GlcNAc(b1-4)GlcNAc
# How it was run: as §1
# [20] = target: GlcNAc(b1-2)[GlcNAc(b1-6)]Man(a1-6)[GlcNAc(b1-2)Man(a1-3)]Man(b1-4)GlcNAc(b1-4)[Fuc(a1-6)]GlcNAc
# How it was run: as §1
# [21] = target: GlcNAc(b1-2)[GlcNAc(b1-6)]Man(a1-6)[GlcNAc(b1-4)][GlcNAc(b1-2)Man(a1-3)]Man(b1-4)GlcNAc(b1-4)GlcNAc
# How it was run: as §1
# GlcNAc(b1-3)Fuc = target: GlcNAc(b1-3)Fuc
# How it was run: as §1
# GlcNAc(b1-3)Gal = target: GlcNAc(b1-3)Gal
# How it was run: as §1
# [22] = target: GlcNAc(b1-3)Gal(b1-3)GalNAc
# How it was run: as §1
# GlcNAc(b1-3)Gal(b1-4)Glc = target: GlcNAc(b1-3)Gal(b1-4)Glc
# How it was run: as §1
# [23] = target: GlcNAc(b1-3)Gal(b1-4)GlcNAc
# How it was run: as §1
# [24] = target: GlcNAc(b1-3)Gal(b1-4)GlcNAc(b1-2)Man(a1-3)[GlcNAc(b1-3)Gal(b1-4)GlcNAc(b1-2)Man(a1-6)]Man(b1-4)GlcNAc(b1-4)GlcNAc
# How it was run: as §1
# [25] = target: GlcNAc(b1-3)Gal(b1-4)GlcNAc(b1-2)Man(a1-3)[GlcNAc(b1-3)Gal(b1-4)GlcNAc(b1-2)Man(a1-6)]Man(b1-4)GlcNAc(b1-4)[Fuc(a1-6)]GlcNAc
# How it was run: as §1
# [26] = target: GlcNAc(b1-3)Gal(b1-4)GlcNAc(b1-2)[GlcNAc(b1-3)Gal(b1-4)GlcNAc(b1-6)]Man(a1-6)[GlcNAc(b1-3)Gal(b1-4)GlcNAc(b1-2)Man(a1-3)]Man(b1-4)GlcNAc(b1-4)GlcNAc
# How it was run: as §1
# [27] = target: GlcNAc(b1-3)Gal(b1-4)GlcNAc(b1-3)Gal(b1-4)GlcNAc
# How it was run: as §1
# [28] = target: GlcNAc(b1-3)Gal(b1-4)GlcNAc(b1-3)Gal(b1-4)GlcNAc(b1-2)Man(a1-3)[GlcNAc(b1-3)Gal(b1-4)GlcNAc(b1-3)Gal(b1-4)GlcNAc(b1-2)Man(a1-6)]Man(b1-4)GlcNAc(b1-4)GlcNAc
# How it was run: as §1
# [29] = target: GlcNAc(b1-3)Gal(b1-4)GlcNAc(b1-3)Gal(b1-4)GlcNAc(b1-2)Man(a1-3)[GlcNAc(b1-3)Gal(b1-4)GlcNAc(b1-3)Gal(b1-4)GlcNAc(b1-2)Man(a1-6)]Man(b1-4)GlcNAc(b1-4)[Fuc(a1-6)]GlcNAc
# How it was run: as §1
# [30] = target: GlcNAc(b1-3)Gal(b1-4)GlcNAc(b1-3)Gal(b1-4)GlcNAc(b1-2)[GlcNAc(b1-3)Gal(b1-4)GlcNAc(b1-3)Gal(b1-4)GlcNAc(b1-6)]Man(a1-6)[GlcNAc(b1-3)Gal(b1-4)GlcNAc(b1-3)Gal(b1-4)GlcNAc(b1-2)Man(a1-3)]Man(b1-4)GlcNAc(b1-4)[Fuc(a1-6)]GlcNAc
# How it was run: as §1
# [31] = target: GlcNAc(b1-3)Gal(b1-4)GlcNAc(b1-3)Gal(b1-4)GlcNAc(b1-3)Gal(b1-4)GlcNAc(b1-2)Man(a1-3)[GlcNAc(b1-3)Gal(b1-4)GlcNAc(b1-3)Gal(b1-4)GlcNAc(b1-3)Gal(b1-4)GlcNAc(b1-2)Man(a1-6)]Man(b1-4)GlcNAc(b1-4)GlcNAc
# How it was run: as §1
# [32] = target: GlcNAc(b1-3)Gal(b1-4)GlcNAc(b1-3)Gal(b1-4)GlcNAc(b1-3)Gal(b1-4)GlcNAc(b1-2)Man(a1-3)[GlcNAc(b1-3)Gal(b1-4)GlcNAc(b1-3)Gal(b1-4)GlcNAc(b1-3)Gal(b1-4)GlcNAc(b1-2)Man(a1-6)]Man(b1-4)GlcNAc(b1-4)[Fuc(a1-6)]GlcNAc
# How it was run: as §1
# [33] = target: GlcNAc(b1-3)Gal(b1-4)GlcNAc(b1-3)Gal(b1-4)GlcNAc(b1-3)Gal(b1-4)GlcNAc(b1-2)[GlcNAc(b1-3)Gal(b1-4)GlcNAc(b1-3)Gal(b1-4)GlcNAc(b1-3)Gal(b1-4)GlcNAc(b1-6)]Man(a1-6)[GlcNAc(b1-3)Gal(b1-4)GlcNAc(b1-3)Gal(b1-4)GlcNAc(b1-3)Gal(b1-4)GlcNAc(b1-2)Man(a1-3)]Man(b1-4)GlcNAc(b1-4)[Fuc(a1-6)]GlcNAc
# How it was run: as §1
# [34] = target: GlcNAc(b1-3)Gal(b1-4)GlcNAc(b1-3)Gal(b1-4)GlcNAc(b1-3)Gal(b1-4)GlcNAc(b1-3)Gal(b1-4)GlcNAc(b1-2)Man(a1-3)[GlcNAc(b1-3)Gal(b1-4)GlcNAc(b1-3)Gal(b1-4)GlcNAc(b1-3)Gal(b1-4)GlcNAc(b1-3)Gal(b1-4)GlcNAc(b1-2)Man(a1-6)]Man(b1-4)GlcNAc(b1-4)GlcNAc
# How it was run: as §1
# [35] = target: GlcNAc(b1-3)Gal(b1-4)GlcNAc(b1-3)Gal(b1-4)GlcNAc(b1-3)Gal(b1-4)GlcNAc(b1-3)Gal(b1-4)GlcNAc(b1-2)Man(a1-3)[GlcNAc(b1-3)Gal(b1-4)GlcNAc(b1-3)Gal(b1-4)GlcNAc(b1-3)Gal(b1-4)GlcNAc(b1-3)Gal(b1-4)GlcNAc(b1-2)Man(a1-6)]Man(b1-4)GlcNAc(b1-4)[Fuc(a1-6)]GlcNAc
# How it was run: as §1
binder,measurement,setting,value
B1,glycan array binding signal (z-score),[1],-0.002
same,glycan array binding signal (z-score),[2],-0.062
same,glycan array binding signal (z-score),[3],-0.192
same,glycan array binding signal (z-score),[4],-0.465
same,glycan array binding signal (z-score),[5],-0.022
same,glycan array binding signal (z-score),[6],-0.492
same,glycan array binding signal (z-score),[7],-0.603
same,glycan array binding signal (z-score),[8],1.75
same,glycan array binding signal (z-score),[9],-0.154
same,glycan array binding signal (z-score),[10],0.496
same,glycan array binding signal (z-score),[11],-0.414
same,glycan array binding signal (z-score),[12],-0.018
same,glycan array binding signal (z-score),[13],-0.034
same,glycan array binding signal (z-score),[14],-0.537
same,glycan array binding signal (z-score),[15],-0.408
same,glycan array binding signal (z-score),[16],-0.293
same,glycan array binding signal (z-score),[17],-0.495
same,glycan array binding signal (z-score),[18],-0.263
same,glycan array binding signal (z-score),[19],-0.509
same,glycan array binding signal (z-score),[20],-0.039
same,glycan array binding signal (z-score),[21],0.02
same,glycan array binding signal (z-score),GlcNAc(b1-3)Fuc,0.004
same,glycan array binding signal (z-score),GlcNAc(b1-3)Gal,-0.263
same,glycan array binding signal (z-score),[22],-0.117
same,glycan array binding signal (z-score),GlcNAc(b1-3)Gal(b1-4)Glc,0.003
same,glycan array binding signal (z-score),[23],-0.398
same,glycan array binding signal (z-score),[24],-0.302
same,glycan array binding signal (z-score),[25],0.423
same,glycan array binding signal (z-score),[26],0.517
same,glycan array binding signal (z-score),[27],-0.305
same,glycan array binding signal (z-score),[28],0.767
same,glycan array binding signal (z-score),[29],0.356
same,glycan array binding signal (z-score),[30],0.672
same,glycan array binding signal (z-score),[31],0.302
same,glycan array binding signal (z-score),[32],0.096
same,glycan array binding signal (z-score),[33],0.005
same,glycan array binding signal (z-score),[34],0.324
same,glycan array binding signal (z-score),[35],0.641

# At a glance, some entries already given.
binder,measurement,setting,value
B1,glycan array binding signal (z-score),[10],0.496
same,glycan array binding signal (z-score),[11],-0.414
same,glycan array binding signal (z-score),[12],-0.018
